Assay results as given in the supplement of paper PMC6445147.
Single values of this data set are uncertain.

B1: human tRNA-Pro; a variant is named by its letters at N, in order (parent)
chain: GGCTCGTTGGTCTAGNGGTATGATTCTCGCTTAGGGTGCGAGAGGTCCCGGGTTCNNATCCCGGACGAGCCC

Columns and labels:
[1] = variants of: B1; assay: tRNA Pol-III promoter activity, log2 (circRNA frequency / plasmid DNA frequency) (log2 ratio); higher = stronger promoter activity; conditions: HEK293T; construct: no Pol-II promoter ((-)CMV library)
[2] = variants of: B1; assay: tRNA 3' processing efficiency (processed reads / all reads, maximum-likelihood estimate) (fraction); higher = more efficient 3' processing; conditions: HEK293T; construct: no Pol-II promoter ((-)CMV library)
[3] = variants of: B1; assay: tRNA 5' processing efficiency (processed reads / all reads, maximum-likelihood estimate) (fraction); higher = more efficient 5' processing; conditions: HEK293T; construct: CMV Pol-II promoter ((+)CMV library, decapped)

| Variant | tRNA Pol-III promoter activity (log2) [1] | tRNA 3' processing efficiency [2] | tRNA 5' processing efficiency [3] |
| --- | --- | --- | --- |
| CAA G17T T54A | 4.25 | 0.75 |  |
| GAA G18A A20G T53A | 3.03 | 0.25 |  |
| GAA T8G A58G | 1.34 | 0.07 | 0.2 |
| GAA T8G A58C | -0.57 | 0.4 |  |
| GAA T8C A58T T59A | 5.53 | 0.17 |  |
| GAA T8C A58T T59C | 4.07 | 0.2 |  |
| AAA G18C T54A | 2.44 | 0.5 |  |
| GAA G18A A58T T59C | 6.17 | 0.2 |  |
| GAA G18A A58T T59G | 3.51 | 0.22 |  |
| GAA T8C A14G G15C T19A | 5.16 | 0.86 |  |
| GAA T8G G15A G18C | 4.43 | 0.57 |  |
| GAA T8C A58G T59C | 4.93 | 0.13 |  |
| GAA T8C A58G T59A | 4.68 | 0.4 |  |
| GAA T8C A58G T59G | 5.25 | 0.2 |  |
| GAA T8C G9A G15A C55T | 4.71 | 0.5 |  |
| GAA T8G A14G G17A | 4.36 | 0.67 |  |
| GAA T8C G15C T53A | 3.71 | 0.25 |  |
| GAA T8C A14T A58T | 5.74 | 0.14 |  |
| GAA T8C A14T A58C | 5.45 | 0.62 |  |
| GAA T8C A14T A58G | 4.1 | 0.33 |  |
| GAA T8G A14T A20T | 4.67 | 0.4 |  |
| GAA G18A A20C C55T | 4.25 | 0.4 |  |
| GAA G18A T19A T59G | 4.94 | 0.25 |  |

| Variant | tRNA Pol-III promoter activity (log2) [1] | tRNA 3' processing efficiency [2] | tRNA 5' processing efficiency [3] |
| --- | --- | --- | --- |
| CAA T8C T53G A58T | 7.39 | 0.55 |  |
| GAA T8C T53G | 0.547 | 0.45 | 0.14 |
| GAA T8C T53A | 1.61 | 0.21 | 0.33 |
| GAA T8C T53C | 1.5 | 0.28 |  |
| GAA T8G G15A T53C | 3.67 | 0.57 |  |
| GAA G50T | 5.34 | 0.41 |  |
| GAA G18A A20T | 1.07 | 0.29 | 0.4 |
| GAA G18A A20G | -1.45 | 0.33 | 0.17 |
| CAA G18A T19G T59G | 7.03 | 0.25 |  |
| GAA T8A G15C | 0.174 | 0.37 |  |
| CAA G18A T53A | 6.36 | 0.2 |  |
| TAA T8C T53A | 6.91 | 0.64 |  |
| TAA T8C T53C | 6.91 | 0.92 |  |
| GAA T8A G15A G18T | 6.75 | 0.57 |  |
| GAA T8C T19G C55G | 3.62 | 0.25 |  |
| GAA G18T A20C C55T | 5.75 | 0.86 |  |
| TAA T8C C55T | 6.39 | 0.45 |  |
| GAA G29A C55T | 3.03 | 0.5 |  |
| CAA T8C T53A | 7.39 | 0.36 |  |
| GAA G17T G18C T59A | 4.34 | 0.25 |  |
| GAA G18C | -4.14 | 0.5 | 0.26 |
| GAA G18T | -3.12 | 0.55 | 0.33 |
| GAA G18A | -2.22 | 0.51 | 0.22 |

| Variant | tRNA Pol-III promoter activity (log2) [1] | tRNA 3' processing efficiency [2] | tRNA 5' processing efficiency [3] |
| --- | --- | --- | --- |
| GAA T8C A20T T53A T59C | 3.93 | 0.4 |  |
| GAA G18T T53A T59A | 4.12 | 0.62 |  |
| GAA T8C A20G | 1.45 | 0.67 |  |
| GAA T8C A20T | 2.54 | 0.33 | 0.25 |
| GAA G18T T53A | 1.01 | 0.11 |  |
| GAA T8C G9A A20T | 5.49 | 0.27 |  |
| GAA T8G G15T G17T | 4.62 | 0.22 |  |
| GAA T8A C55A | 0.418 | 0.7 |  |
| GAA T8A C55T | -1.73 | 0.5 | 0.4 |
| AAA T8A A14T G17C T54C A58C | 3.93 | 0.17 |  |
| GAA G51C | 6.03 | 0.25 |  |
| GAA G51A | 4.36 | 0.44 |  |
| GAA G51T | 3.78 | 0.22 |  |
| CAA G18A A58C | 3.36 | 0.25 |  |
| AAA T8G G15C G18A C55T A58T | 5.49 | 0.18 |  |
| GAA T8A G18C | 2.08 | 0.75 |  |
| GAA T8A G18T | 0.287 | 0.14 |  |
| GAA T8C A20T T53A | 3.36 | 0.25 |  |
| GAA T8C G18A T53A | 5.94 | 0.25 |  |
| GAA T8A A14G T59G | 2.84 | 0.29 |  |
| GAA G18A A58G T59G | 7.19 | 0.18 |  |
| GAA T8G G15T A20G | 2.19 | 0.6 |  |
| GAA G18T A20G | -0.878 | 0.25 |  |

Complete entries, quoted from the list.
CAA G18A A58C in the list: tRNA Pol-III promoter activity (log2) [1] = 3.36; tRNA 3' processing efficiency [2] = 0.25
GAA T8C A20T T53A in the list: tRNA Pol-III promoter activity (log2) [1] = 3.36; tRNA 3' processing efficiency [2] = 0.25
GAA T8C G18A T53A in the list: tRNA Pol-III promoter activity (log2) [1] = 5.94; tRNA 3' processing efficiency [2] = 0.25
GAA G18T A20G in the list: tRNA Pol-III promoter activity (log2) [1] = -0.878; tRNA 3' processing efficiency [2] = 0.25

(listing goes on)

| Variant | tRNA Pol-III promoter activity (log2) [1] | tRNA 3' processing efficiency [2] | tRNA 5' processing efficiency [3] |
| --- | --- | --- | --- |
| GAA T8G A14T T19C | 6.26 | 0.2 |  |
| GAA T8A T54A | 1.36 | 0.13 |  |
| GAA G18A A20T T59G | 0.928 | 0.67 |  |
| GAA T8A G17T G18A A58T | 5.2 | 0.56 |  |
| GAA T8C A14G A58C | 4.84 | 0.38 |  |
| GAA T8C T19A T59A | 4.36 | 0.25 |  |
| GAA T8C T19A T59C | 5.36 | 0.4 |  |
| GAA T8G A14C G15C | 3.61 | 0.25 |  |
| GAA G18T T19G A20C | 3.3 | 0.33 |  |
| GAA T8G G15C A58G T59G | 5.25 | 0.4 |  |
| TAA T8C G17A G18A T19A T53G A58T | 3.74 | 0.71 |  |
| GAA T8G G15T A58G | 2.36 | 0.5 |  |
| GAA T8C A14C T59G | 6.25 | 0.4 |  |
| GAA T8C A14C T59C | 4.45 | 0.25 |  |
| GAA T8A A14G G15C G17A T53A | 4.45 | 0.5 |  |
| GAA G50A A58C | 6.51 | 0.5 |  |
| GAA G17T T19G T53A | 1.4 | 0.25 |  |
| GAA T8C A14T T19A A58G | 5.74 | 0.57 |  |
| GAA T8C G9A T19A T54A | 5.26 | 0.2 |  |
| GAA T8G A14C G18A C55T | 6.62 | 0.17 |  |
| GAA T8C A14G G15C | 3.13 | 0.25 |  |
| GAA T8C A14G A20G | 1.77 | 0.25 |  |
| CAA T8C A58G | 7.03 | 0.75 |  |

| Variant | tRNA Pol-III promoter activity (log2) [1] | tRNA 3' processing efficiency [2] | tRNA 5' processing efficiency [3] |
| --- | --- | --- | --- |
| CAA T8C A58T | 4.42 | 0.25 | 0.2 |
| GAA T8C T19C A58C | 4.26 | 0.2 |  |
| GAA T8C A58C | 0.0112 | 0.25 |  |
| GAA T8C A58T | 1.57 | 0.41 |  |
| GAA T8C A58G | 0.56 | 0.13 |  |
| GAA T8G A14G | 0.425 | 0.81 |  |
| AAA T8C A58C | 4.85 | 0.82 |  |
| AAA T8C A58G | 3.71 | 0.25 |  |
| AAA T8C A58T | 3.13 | 0.25 |  |
| GAA G18A A20G A58T | 2.9 | 0.2 |  |
| GAA G18T A58G T59A | 3.3 | 0.33 |  |
| GAA G18T A58G T59G | 3.36 | 0.25 |  |
| AAA T8A | 0.242 | 0.17 |  |
| AAA T8C | 1.32 | 0.53 |  |
| GAA T8A G9C G15T G18C T19G A20T T53A T54A C55T | 5.26 | 0.3 |  |
| GAA T8C G15C T59G | 6.03 | 0.25 |  |
| GAA T8C G9T A20T | 3.21 | 0.56 |  |
| GAA G18T A58C | -0.145 | 0.43 | 0.18 |
| GAA G18A T19C T59C | 4.71 | 0.17 |  |
| GAA G18A T19C T53A | 7.84 | 0.21 |  |
